# Screening data, single-dose tests

Protein sequences, listed by entry. Tags and fused reporters are not part of them. Residues count along the entry.
UniProt A4I591, 1-473: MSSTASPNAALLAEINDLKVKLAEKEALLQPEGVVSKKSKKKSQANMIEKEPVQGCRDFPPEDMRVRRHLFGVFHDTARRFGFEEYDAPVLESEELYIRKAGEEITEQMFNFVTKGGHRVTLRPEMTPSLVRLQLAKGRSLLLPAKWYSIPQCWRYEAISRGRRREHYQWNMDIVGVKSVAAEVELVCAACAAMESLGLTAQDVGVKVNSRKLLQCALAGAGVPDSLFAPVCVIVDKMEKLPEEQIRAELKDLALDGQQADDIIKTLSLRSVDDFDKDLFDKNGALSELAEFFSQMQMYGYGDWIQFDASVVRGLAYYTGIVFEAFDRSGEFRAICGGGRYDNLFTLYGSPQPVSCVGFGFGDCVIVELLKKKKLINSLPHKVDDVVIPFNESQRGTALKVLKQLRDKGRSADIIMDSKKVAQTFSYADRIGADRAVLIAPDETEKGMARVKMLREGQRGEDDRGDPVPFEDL
UniProt P9WFT3, whole entry: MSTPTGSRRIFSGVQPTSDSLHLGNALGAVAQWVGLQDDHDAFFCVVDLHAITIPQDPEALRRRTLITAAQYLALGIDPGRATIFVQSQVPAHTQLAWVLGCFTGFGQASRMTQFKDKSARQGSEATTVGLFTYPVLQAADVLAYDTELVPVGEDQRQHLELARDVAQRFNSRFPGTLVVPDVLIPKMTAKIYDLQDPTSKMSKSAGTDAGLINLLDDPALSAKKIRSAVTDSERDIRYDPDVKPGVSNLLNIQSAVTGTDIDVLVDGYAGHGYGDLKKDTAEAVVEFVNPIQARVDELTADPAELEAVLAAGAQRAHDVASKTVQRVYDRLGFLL
UniProt P9WNZ1, whole entry: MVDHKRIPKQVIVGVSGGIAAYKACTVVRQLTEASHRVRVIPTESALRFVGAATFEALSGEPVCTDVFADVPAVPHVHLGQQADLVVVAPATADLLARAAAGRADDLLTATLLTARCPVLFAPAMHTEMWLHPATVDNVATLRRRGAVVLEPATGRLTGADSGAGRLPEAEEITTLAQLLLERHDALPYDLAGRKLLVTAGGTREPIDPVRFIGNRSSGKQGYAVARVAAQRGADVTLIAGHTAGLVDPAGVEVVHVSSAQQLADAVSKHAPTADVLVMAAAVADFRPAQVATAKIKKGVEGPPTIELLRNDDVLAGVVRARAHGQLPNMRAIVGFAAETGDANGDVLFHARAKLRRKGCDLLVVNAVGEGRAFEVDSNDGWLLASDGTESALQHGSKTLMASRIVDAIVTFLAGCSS

Measurements from “University of Dundee, Small-Polar-MMV Screening Library” (2021), ChEMBL document CHEMBL3988442.

The filed quantity is “Percent Effect” (%). How 0% and 100% were set is not recorded. Most values in the screen are low, and negative values occur. This is an unselected part of the compounds tested.

A: 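Enzyme assay of histidyl-tRNA synthetase; the read-out is not stated. Target: Histidine-tRNA ligase, Leishmania infantum (UniProt A4I591). Concentration: 30 µM. Direction is inferred from retests: higher values go with stronger inhibition. The assay is labelled LdHisRS but filed under L. infantum. Size under these conditions: about 69,000 compounds, about 410 of them at 50% or above in at least one test.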
B: 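Tryptophan-tRNA ligase, Mycobacterium tuberculosis (UniProt P9WFT3). Enzyme assay of tryptophanyl-tRNA synthetase; the read-out is not stated. Tested at 10 µM. Higher most likely means stronger inhibition; the record gives no direction and few retests gave an IC50. Of about 65,000 compounds tested this way, about 64 (0.098%) reached 50% or more in at least one test.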
C: 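Enzyme assay of CoaBC with a phosphate dye (Biomol Green) read at 650 nm. Target: Coenzyme A biosynthesis protein CoaBC, Mycobacterium tuberculosis (UniProt P9WNZ1). Concentration: 30 µM. Direction is inferred from only a few compounds that gave an IC50; most scored high, so higher reads as stronger inhibition. Most strong results did not repeat in a second test. Size under these conditions: about 67,000 compounds, about 40 of them at 50% or above in at least one test.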

{"structure": "O=C(NCCNc1cnccn1)c1scnc1Cl", "A": 2.222, "B": 1.975, "C": 1.961}
{"structure": "O=S1(=O)CCC(NCCn2cncc2-c2ccc3c(c2)CCCO3)C1", "stereo": "stereo not shown", "A": 15.49, "B": -5.367, "C": 16.86}
{"structure": "Cc1cc(NCC(=O)N(C)Cc2cccs2)c(C(N)=O)cc1F", "A": 18.31, "B": 1.31, "C": 10.53}
{"structure": "O=C(c1cn(Cc2ccccc2)c2ncccc12)N1CCOCC1", "A": 17.82, "C": 2.67}
{"structure": "O=C(NCCn1ccnc1)NCC(c1ccco1)N1CCCC1", "stereo": "stereo not shown", "A": 11.5, "B": 7.774, "C": 0.2611}
{"structure": "CCOc1ccc(Br)cc1-c1cc(N)[nH]n1", "A": 32.61, "B": -0.3163, "C": -4.358}
{"structure": "Cc1cncnc1C1CCN(CC(N)=O)CC1", "A": 12.68, "B": -1.563, "C": 6.888}
{"structure": "O=C(c1coc(COc2cccc3cnccc23)n1)N1CCSCC1", "A": 11.84, "B": -4.163, "C": -5.14}
{"structure": "CCc1nnc(Nc2cc(C)nc(C3CCN(c4ncccn4)C3)n2)s1", "stereo": "stereo not shown", "A": 1.418, "B": 11.94, "C": 0.6993}
{"structure": "CCc1nnc(CNC2CCc3nc(C(C)C)nn3C2)o1", "stereo": "stereo not shown", "A": 9.649, "B": -10.03, "C": -3.609}
{"structure": "COc1cc(C)ccc1OCc1nc(C(=O)N2CCC(C)CC2)co1", "A": 5.128, "B": -1.699, "C": 6}
{"structure": "CC1CN(Cc2cnn(C)c2)CCN1c1ccc2nncn2n1", "stereo": "stereo not shown", "A": 12.17, "B": 1.558, "C": 5.032}
{"structure": "CC(C)Nc1nc2c(c(N(C)C)n1)CCN(Cc1nccn1C)CC2", "A": 24, "B": 4.026, "C": -13.73}
{"structure": "COc1cccc2c1OCC(C(=O)NCc1nc3c(s1)CCCC3)C2", "stereo": "stereo not shown", "A": 0, "B": 0.2649, "C": -0.6098}
{"structure": "CCC(=O)N1CCC2(CC1)CC(CC(N)=O)c1ccc(F)cc12", "stereo": "stereo not shown", "A": 14, "B": -2.379, "C": 4.713}
{"structure": "O=C(NCC(O)c1ccccc1Cl)c1cccc(-n2cnnn2)c1", "stereo": "stereo not shown", "A": 21.15, "B": 6.914, "C": 7.889}
{"structure": "Cc1cc2n(n1)CC(CNC1CCN(Cc3ccncc3)CC1)CN2", "stereo": "stereo not shown", "A": 11.48, "B": -3.254, "C": -45.49}
{"structure": "CS(=O)(=O)NCCCN1CCCC1c1cccc(Br)c1", "stereo": "stereo not shown", "A": 22.03, "B": -5.158, "C": 0.5249}
{"structure": "Cc1nn(C)c(=O)c2nn(-c3ccc(Cl)cc3)c(C)c12", "A": 5.495, "B": -1.386, "C": -2.358}

The first 2 entries again:

| structure | A | B | C |
|---|---|---|---|
| `O=C(NCCNc1cnccn1)c1scnc1Cl` | 2.222 | 1.975 | 1.961 |
| `O=S1(=O)CCC(NCCn2cncc2-c2ccc3c(c2)CCCO3)C1` (stereo not shown) | 15.49 | -5.367 | 16.86 |